Measured values: US20170304388A1, “NEW INDICATION OF CARDIOVASCULAR DRUGS FOR PREPARATION OF CANCER INHIBITION PHARMACEUTICAL COMPOSITION” (LAUNX BIOMEDICAL CO., LTD., priority 2014, published 2017)

System: cancer cell lines
Assay: Growth inhibitory effects on the panel of cancer cell lines
Type: cell-based

## Clc1ccc2c(c1)CCc1cccnc1C2=C1CCNCC1 [Desloratadine]
  inhibition effect on different cancer cell lines (in words): significant inhibition effect
